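Primary screen of methionyl-tRNA synthetase; the read-out is not stated. Target: Methionyl-tRNA synthetase (putative), Leishmania donovani (UniProt E9BF75). The test concentration is not given. The values are filed as inhibition. About 68,000 compounds were tested under these conditions; 0.035% (about 24) showed 50% or more at least once.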

Amino acid sequences for entries named in this document (tags omitted).
UniProt E9BF75, entry or part of it: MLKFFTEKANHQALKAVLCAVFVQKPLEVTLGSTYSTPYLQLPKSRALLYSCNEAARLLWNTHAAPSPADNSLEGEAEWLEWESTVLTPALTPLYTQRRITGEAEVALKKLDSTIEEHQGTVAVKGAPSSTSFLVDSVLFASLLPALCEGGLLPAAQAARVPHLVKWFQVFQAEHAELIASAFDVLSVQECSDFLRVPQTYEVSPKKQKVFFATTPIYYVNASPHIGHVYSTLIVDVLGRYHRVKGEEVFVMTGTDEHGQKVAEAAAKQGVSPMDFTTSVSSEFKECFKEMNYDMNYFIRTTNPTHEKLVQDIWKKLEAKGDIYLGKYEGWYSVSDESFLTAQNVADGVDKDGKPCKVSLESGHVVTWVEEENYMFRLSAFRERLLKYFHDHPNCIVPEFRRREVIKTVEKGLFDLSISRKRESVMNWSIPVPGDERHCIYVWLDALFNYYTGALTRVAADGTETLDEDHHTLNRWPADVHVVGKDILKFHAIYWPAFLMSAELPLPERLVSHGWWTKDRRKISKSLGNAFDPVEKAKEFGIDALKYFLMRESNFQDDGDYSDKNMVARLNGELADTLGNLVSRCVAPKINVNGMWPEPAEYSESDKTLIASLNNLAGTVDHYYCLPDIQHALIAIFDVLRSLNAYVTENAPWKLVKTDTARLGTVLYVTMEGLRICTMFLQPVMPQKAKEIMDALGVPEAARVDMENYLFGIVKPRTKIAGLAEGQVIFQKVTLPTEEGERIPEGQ

All values are in %. How 0% and 100% were set is not recorded. Most values in the screen are low, and negative values occur. This is an unselected part of the compounds tested.

| # | Compound | inhibition |
|---|---|---|
| 1 | `O=S(=O)(NCCc1ccccc1F)N1CCOCC1` | 4.871 |
| 2 | `CN(Cc1cnccn1)S(=O)(=O)c1ccc(C(F)(F)F)nc1` | 9.296 |
| 3 | `Cn1cc(CN2CCC[C@]3(C(=O)O)CN(c4ncccn4)C[C@@H]3C2)cn1` | 9.446 |
| 4 | `CCn1cnnc1CNC(=O)c1cc(F)ccc1OC` | 18.62 |
| 5 | `CCc1nc(COc2ccc(N(C)C(C)=O)cc2)no1` | -9.42 |
| 6 | `CC1CN(CCOc2ccccc2C#N)CCN1Cc1nccn1C` (configuration not stated) | 14.86 |
| 7 | `CCN1CCCCC1C(=O)Nc1cccc(-c2nnc[nH]2)c1` (configuration not stated) | 6.72 |
| 8 | `N#Cc1cccc(N2CCC3(CCC(=O)N(CC(N)=O)C3)CC2)n1` | 4.902 |
| 9 | `CN(C)c1ncnc2c1CCN(S(=O)(=O)c1cccc3nsnc13)C2` | 8.397 |
| 10 | `CNC(=O)CC1CC2(CCNCC2)c2cc(F)ccc21` (configuration not stated) | -27.57 |
| 11 | `O=C(NCCN1CCCC1)Nc1cc(C(=O)N2CCOCC2)ccc1Cl` | 6.267 |
| 12 | `Nc1nccc(C2CN(Cc3ccc(-c4ccccc4C(=O)O)o3)C2)n1` | 34.69 |
| 13 | `COCC(=O)Nc1ccccc1-c1ccc(=O)n(C)n1` | 13.67 |
| 14 | `Cn1cc(NC(=O)c2cc3c(s2)CCCC3)cn1` | 23.57 |
| 15 | `O=C(NCCc1nnc[nH]1)Nc1cccc(SC(F)F)c1` | 16.91 |
| 16 | `CN(C)CC1CSCCCN1C(=O)c1ccc(-n2cccc2)cc1` (configuration not stated) | 13.02 |
| 17 | `CS(=O)(=O)N1CC[C@@H]2[C@@H]1CCN2Cc1ccc2c(c1)OCO2` | 4.444 |
| 18 | `CCCn1nc2c(cc1=O)CN(CC1CCCCO1)CC2` (configuration not stated) | 13.65 |
| 19 | `Cc1noc(C)c1CN1CC2(CCN(C(=O)c3ccoc3C)C2)CC1=O` (configuration not stated) | 10.53 |
| 20 | `COc1ccc(S(=O)(=O)C(F)(F)F)cc1NC(=O)CSCC#N` | 4.076 |
| 21 | `Cc1nc(CN2CC[C@H]3[C@H]2CCN3c2nncs2)cs1` | 4.498 |
| 22 | `Cc1cc(NC(=O)CCn2nc(C)c3ccccc32)n(C)n1` | 14.45 |
| 23 | `COc1ccnc(N2CCN(C(=O)CCc3nccs3)CC2)n1` | 14.86 |
| 24 | `CN1CCN(C(=O)c2cc(-c3ccco3)cs2)CC1` | 19.26 |
| 25 | `Cc1cc(-c2ccncc2)ccc1OCC(N)=O` | 11.73 |
| 26 | `COc1c(CNCc2ccc(CS(C)(=O)=O)cc2)c(C)nn1C` | 12.57 |
| 27 | `Cc1ccc(C(=O)NCc2ccccc2S(=O)(=O)N(C)CCO)cc1F` | 7.711 |
| 28 | `O=C(C1CC1)N1C[C@@H](F)[C@@H](OCc2nc3cc(F)ccc3[nH]2)C1` | 7.119 |
| 29 | `CCNC(=O)c1cnc(Cc2ccc(F)cc2)s1` | 15.61 |
| 30 | `CNc1nc(C)c(C(=O)N2C[C@@H](C(=O)O)[C@H](C3CC3)C2)s1` | 3.252 |
| 31 | `Cc1ccc(=O)n(CC2(O)CCN(Cc3cnc(N(C)C)nc3)CC2)n1` | 2.083 |
| 32 | `Cc1[nH]c2ccccc2c1-c1ccnc(N[C@@H](C)CO)n1` | 18.2 |
| 33 | `Cc1ccccc1CC1(C(=O)O)CCCN(c2ncccn2)C1` (configuration not stated) | 16.72 |
| 34 | `Cc1nn(C)c(N2CCOCC2)c1CNC1CCN(C2CC2)CC1` | 20 |
| 35 | `COc1ncccc1NC(=O)c1cccc(C)n1` | 4.294 |
| 36 | `COc1cccc(S(=O)(=O)CCN2CCCCC2)c1` | 3.902 |
| 37 | `Cc1occc1C(=O)N1CC[C@@H]2[C@@H](CO[C@H]2CNS(C)(=O)=O)C1` | 20 |
| 38 | `CC(C)C(C)NC(=O)c1ncn2c1CN(C)S(=O)(=O)c1ccccc1-2` (configuration not stated) | 20.86 |
| 39 | `Cn1ncc2c1CCCC2NCc1cccc2c1OCCCO2` (configuration not stated) | 22.64 |
| 40 | `CCN(Cc1cccc2c1OCO2)C(=O)NC1CC1` | 16.38 |
| 41 | `Cc1nn(C)c(C)c1CC(=O)N1CCCC(n2ccnc2)C1` (configuration not stated) | 8.661 |
| 42 | `CNC(=O)c1ccc(C2CN(C(=O)c3coc(C)n3)CCO2)nc1` (configuration not stated) | 9.605 |
| 43 | `CCCNC(=O)CNc1ccc(C(=O)N2CCCCC2C)cc1C` (configuration not stated) | 10.12 |
| 44 | `O=C(NCc1ccc(OCC2CC2)nc1)C1COc2ccccc2O1` (configuration not stated) | 4.749 |
| 45 | `CN1CCCN(c2nccc(-c3cc(C(=O)O)ccn3)n2)CC1` | 4.082 |
| 46 | `O=c1[nH]c2c(-c3ccccn3)nsc2c(=O)n1C1CCCCC1` | 15.45 |
| 47 | `CS(=O)(=O)N[C@H]1CN(C(=O)CCc2ccc(=O)[nH]n2)C[C@@H]1C1CC1` | 16.32 |
| 48 | `Cc1ncsc1C(=O)N1CCC(O)(CN2CCc3ccccc3C2)C1` (configuration not stated) | 1.176 |
| 49 | `CSc1cc(CNC(=O)CCOc2ccccc2C)ccn1` | 1.344 |

For reference, 6 entries once more:

Compound,inhibition
Cc1[nH]c2ccccc2c1-c1ccnc(N[C@@H](C)CO)n1,18.2
CCCNC(=O)CNc1ccc(C(=O)N2CCCCC2C)cc1C (configuration not stated),10.12
N#Cc1cccc(N2CCC3(CCC(=O)N(CC(N)=O)C3)CC2)n1,4.902
Cn1cc(CN2CCC[C@]3(C(=O)O)CN(c4ncccn4)C[C@@H]3C2)cn1,9.446
COc1ccnc(N2CCN(C(=O)CCc3nccs3)CC2)n1,14.86
CNC(=O)c1ccc(C2CN(C(=O)c3coc(C)n3)CCO2)nc1 (configuration not stated),9.605

Data taken from ChEMBL document CHEMBL3988442, “University of Dundee, Small-Polar-MMV Screening Library” (2021).